The source of these data is patent publication US20170152308A1.

Sequences of proteins named here, by UniProt entry; tags and fusion partners are left off.
UniProt Q13148: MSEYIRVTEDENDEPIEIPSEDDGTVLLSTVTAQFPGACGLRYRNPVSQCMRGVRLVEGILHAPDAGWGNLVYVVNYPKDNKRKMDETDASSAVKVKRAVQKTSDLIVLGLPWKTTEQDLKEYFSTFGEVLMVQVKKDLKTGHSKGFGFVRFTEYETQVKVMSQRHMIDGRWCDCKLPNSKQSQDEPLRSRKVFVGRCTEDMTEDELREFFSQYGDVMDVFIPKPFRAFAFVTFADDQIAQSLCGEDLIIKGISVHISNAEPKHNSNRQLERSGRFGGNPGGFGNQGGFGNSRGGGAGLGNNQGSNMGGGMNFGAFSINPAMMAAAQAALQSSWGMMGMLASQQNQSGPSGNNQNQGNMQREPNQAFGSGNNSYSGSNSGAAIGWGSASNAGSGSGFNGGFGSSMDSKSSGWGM

The target in assay [1] is TDP-43 in human FTLD-U (and ALS) patient tissue sections (human) (UniProt Q13148). The assay is described as follows: immunohistochemistry, FTLD-U case hippocampus.
In assay [2] the target is recombinant full-length His-tagged human TDP-43 (2-414) (human) (UniProt Q13148). Description: Western blot.
Assay [3] has as its target TDP-43 in human FTLD-U (and ALS) patient tissue sections (human) (UniProt Q13148). Description: immunohistochemistry, patient tissue sections.
Assay [4] concerns the target recombinant full-length His-tagged human TDP-43 (2-414) (human) (UniProt Q13148). The assay is described as follows: direct ELISA, coated antigen.
The target is the same in assay [5]. Description: direct ELISA, coated recombinant full length TDP-43.
For assay [6], the target named is His-huTDP-43 domain II (amino acid residues 99-204) (human). Description: Western blot, 300 ng recombinant protein per lane, primary antibody 10 nM.
For assay [7] the target is unchanged. Description: direct ELISA, TDP-43 fragments coated at 6.6 ug/ml, OD 450.

No constants are given. Whether binding was seen depends on the method and setting. Some binding calls cover weakened binding; strength is not graded here.

B1: NI-205.3F10 (antibody, human IgG1, V domains shown)
VH: EVQLLESGGDLVQPGGSLRLSCAASGFTFSSQAMSWVRQAPGKGLEWVSALSRTGDYTWYADSVRGRFTVSRDDSKNIFYLEMNSLRAEDTAVYYCAKNYYSSFGYNWAAFHIWGQGTMVTVSS
VL: EIVLTQSPGTLSLSPGERATLSCRASQDVNNNYLAWYQQKPGQAPRLLIYGASRRATGVPDRFSGRGSGTDFTLTINRLEPEDFAMYFCQQYGGSPPYTFGQGTKLEIK
As for B1, the binding result in assay [1], in assay [2], in assay [3], in assay [4] and in assay [5] was “binds” each time.

B2: NI-205.41D1 (antibody, human IgG1, V domains shown)
VH: EVQLVESGGGLVQPGGSLRLSCAASGFTFSTYYMSWVRQAPGKGLEWVANIKQDGSEKYYVDSVKGRFTISRDNARNSLYLQMHSLRAEDTAVYYCASPPGWWGQGTLVTVSS
VL: DIVMTQTPLSLSVTPGQPASISCKSSQSLLHSDGKTYLYWYLQKPGQPPQLLIYEVSNRFSGVPDRFSGSGSGTDFTLKISRVEAEDVGVYYCMQSIQLPVTFGGGTKVEIK
As for B2, the values for the binding entry in assay [6] and in assay [7] were “no binding (tested: 10 nM)” and “no binding”, respectively.
